Data as given in patent US20040071787A1, “Pharmacologic, therapeutic and diagnostic regulation of FGF-1 export” (Maine Medical Center Research Institute, priority 1996, published 2004).
Results are given in words; binding and its absence hold for the method and conditions named. Some results given as binding are weak or reduced against the parent protein; the word gives no strength.

Chains of the proteins cited; added tags and fusions are not shown. Residues count along the entry.
UniProt P05230, residues 22-155: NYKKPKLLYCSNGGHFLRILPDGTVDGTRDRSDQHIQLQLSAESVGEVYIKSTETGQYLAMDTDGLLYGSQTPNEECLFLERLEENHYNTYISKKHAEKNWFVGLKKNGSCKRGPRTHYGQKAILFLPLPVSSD

Target: recombinant FGF-1 (purified) (UniProt P05230)
Assay: Cu2+ oxidation, non-reduced SDS-PAGE

binding: binds
Substance: recombinant FGF-1 (purified) (from UniProt P05230 22-155) (ligand)
